Source: patent publication US20240287166A1 (published 2024)
Results are given in words; binding and its absence hold for the method and conditions named. Some results given as binding are weak or reduced against the parent protein; the word gives no strength.

Experiments:
recombinant CSP (rCSP) [1] = molecular target: recombinant CSP (rCSP) (UniProt P19597); assay: binding ELISA on rCSP, Expi293F supernatants, compared with mAb 311 (FIG. 2D)
recombinant CSP (rCSP) [2] = molecular target: recombinant CSP (rCSP) (UniProt P19597); assay: binding ELISA on rCSP, supernatants and mouse sera (FIG. 2)
recombinant CSP (rCSP) [3] = molecular target: recombinant CSP (rCSP) (UniProt P19597); assay: binding ELISA on rCSP, Expi293F supernatants (FIG. 2D)
recombinant CSP (rCSP) [4] = molecular target: recombinant CSP (rCSP) (UniProt P19597); assay: binding ELISA on rCSP (summary for down selection)
recombinant CSP (rCSP) [5] = molecular target: recombinant CSP (rCSP) (UniProt P19597); assay: binding ELISA on rCSP, pooled mouse sera Day 10 (FIG. 2F)
recombinant CSP (rCSP) [6] = molecular target: recombinant CSP (rCSP) (UniProt P19597); assay: binding ELISA on rCSP, in vitro produced supernatants (FIG. 6B)

Binder | binding (recombinant CSP (rCSP) [1]) | binding (recombinant CSP (rCSP) [2]) | binding (recombinant CSP (rCSP) [3]) | binding (recombinant CSP (rCSP) [4]) | binding (recombinant CSP (rCSP) [5]) | binding (recombinant CSP (rCSP) [6])
10e DMAb-1 (antibody, human IgG1, lambda, V domains shown) VH: QVQLVESGGGVVQPGRSLRLSCAASGFAFSNYGMNWVRQAPGKGLEWVAVIWHDGSLKYYTQSVKGRFTISRDNAKNTLFLQMDSLSADDTAMYYCTVWYLETPDDGFDIWGRGTMVTVSS VL: QLVLTQPPSASASLGVSVTLTCTLSHGHTSKAIAWHQQQPGKGPRYLMKVNSDGSHTKGAAVPDRFSGSTSGAERHFTISNLQSDDEADYYCQAWDSGIWVFGGGTKLTVLG | binds | binds | binds | binds | binds | –
10e DMAb-2 (antibody, human IgG1, lambda, V domains shown, also called MGU10-based engineered DMAb 2; 10e DMAb-2 (MGU10 VH-1 / MGU10 VL)) VH: QVQLVESGGGVVQPGRSLRLSCAASGFAFSNYGMHWVRQAPGKGLEWVAVIWHDGSLKYYTQSVKGRFTISRDNSKNTLYLQMNSLRAEDTAVYYCTVWYLETPDDGFDIWGQGTMVTVSS VL: QLVLTQPPSASASLGVSVTLTCTLSHGHTSKAIAWHQQQPGKGPRYLMKVNSDGSHTKGAAVPDRFSGSTSGAERHFTISNLQSDDEADYYCQAWDSGIWVFGGGTKLTVLG | binds | binds | binds | binds | binds | binds
